Some of the results follow.

Protein sequences, listed by entry. Tags and fused reporters are not part of them.
UniProt Q0JBA9, entry or part of it: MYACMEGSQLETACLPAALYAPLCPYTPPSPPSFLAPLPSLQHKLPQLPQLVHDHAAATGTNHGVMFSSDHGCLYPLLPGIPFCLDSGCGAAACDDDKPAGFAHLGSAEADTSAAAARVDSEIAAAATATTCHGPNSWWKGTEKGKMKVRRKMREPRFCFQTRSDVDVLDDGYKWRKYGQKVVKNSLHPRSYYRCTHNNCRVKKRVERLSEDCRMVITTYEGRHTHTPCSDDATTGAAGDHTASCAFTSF

In this assay the target is OsWRKY34 (Oryza sativa, UniProt Q0JBA9 1-250). Description: protein-binding microarray (RPBM); PBS, 2% BSA, 51.3 ng/ul salmon testes DNA, 50 uM zinc acetate, 200 nM TF, 25 C, 1 h; high values mean tight binding. Conditions: protein: recombinant; tags: N-terminal polyhistidine and DsRed monomer fusion (pET32a); label: CyDye5-dUTP incorporated in the synthesized complementary strand; 3' TTTTT single-stranded linker to array surface; dsDNA, one strand shown. The method in brief:
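Binding signal is reported as fluorescence intensity per feature (arbitrary units) from an Axon 4000B scanner. Incubation used 200 nM of each Ni–NTA-purified, N-terminally polyhistidine- and DsRed-fused transcription factor from E. coli BL21-CodonPlus on a double-stranded custom Agilent array for 1 h at 25 °C, with 50 µM zinc acetate in the buffer, followed by washing.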
As to “ACCCTCTCACCCTAGCTTAGTTTGCCACGACCTGGACCCACGGAGTCACCTAGTGCAG”, the binding signal was 10100 fluorescence intensity (a.u.).

With “AACAATCCCAATTCCGTAGACATTCACCCATTTCTTACCGCGGAGTCACCTAGTGCAG”, the binding signal was 9430 fluorescence intensity (a.u.).

“TCCACATCCCTACTAGTATACATCATTGCTGCTGCTCTGCCGGAGTCACCTAGTGCAG”: the binding signal is 12000 fluorescence intensity (a.u.).

On to “TATATCACACTCTTATTGTCTATACATTTTTTTTTGAATTCGGAGTCACCTAGTGCAG”, for which the binding signal was 8820 fluorescence intensity (a.u.).

Take “TTCATCTTCGCTGTCCACCGCAGCGGCGGCGGCTTTGCATCGGAGTCACCTAGTGCAG”: the binding signal was 8270 fluorescence intensity (a.u.).

Consider “ATCCATCCCGCACGGTTGCACAGTTGCACTCGTTCGTTCGCGGAGTCACCTAGTGCAG”, for which the binding signal was 9340 fluorescence intensity (a.u.).

For the sequence “GTCGGAAGGGTTGCGGTTTCGTGCCTTGCTCTTGTTGGCGCGGAGTCACCTAGTGCAG”, the binding signal was 9260 fluorescence intensity (a.u.).

Turning to “TAAATGACTTGTATGTTTTGTGGGCGGTTAATTTGACTTCCGGAGTCACCTAGTGCAG”, the binding signal was 10600 fluorescence intensity (a.u.).

With “TTTTTCTTAGGGCCGGCGCGGGTGGGACCGGGAGATTGGGCGGAGTCACCTAGTGCAG”, the binding signal is 8840 fluorescence intensity (a.u.).

For “TTATATATTGTTCCGGCCAGTGTATAATACTACGATCTATCGGAGTCACCTAGTGCAG”, the binding signal is 8710 fluorescence intensity (a.u.).

“CCCGTAACACGAGTCCACCTCCCGTTCCCGCCACCACCATCGGAGTCACCTAGTGCAG”: the binding signal is 13300 fluorescence intensity (a.u.).

With “ACCGTACGTGGCGCCACCGCCGCGCCTGCCGCCTGGACACCGGAGTCACCTAGTGCAG”, the binding signal was 8680 fluorescence intensity (a.u.).

“CATCTTCTCTCTATATATATTTATAGCTGGTTTAAAGTATCGGAGTCACCTAGTGCAG”: the binding signal was 9840 fluorescence intensity (a.u.).

As for “CCCCAGCCGACTGCCTCACGCCGTCAATCTCGCCGTCACCCGGAGTCACCTAGTGCAG”, the binding signal is 8170 fluorescence intensity (a.u.).

As to “CAGGCTATTGGCTTTACTTTTCATGACCCGGCAAGCCGAACGGAGTCACCTAGTGCAG”, the binding signal was 9010 fluorescence intensity (a.u.).

“TATGACATTCCTCCTACCATGCATTCTCTTTCAGCTTTGTCGGAGTCACCTAGTGCAG”: the binding signal was 9000 fluorescence intensity (a.u.).

As to “CCCGGCCTGTCTAGCGCCTCGACTCCATTCAACTCGCGCACGGAGTCACCTAGTGCAG”, the binding signal was 8620 fluorescence intensity (a.u.).

With “AAGGGTTCAAAACTGGGTCAGGGCTGAGTGAAATGCATAACGGAGTCACCTAGTGCAG”, the binding signal was 8070 fluorescence intensity (a.u.).

Take “GTCCGCTGCTTTTCTCCCTTGTCGGTTATTTTACCTCTTCCGGAGTCACCTAGTGCAG”: the binding signal is 18900 fluorescence intensity (a.u.).

Take “AATGACTTTTGCTAGTATACTAGCCTTTTTGCGAACTCTTCGGAGTCACCTAGTGCAG”: the binding signal was 9400 fluorescence intensity (a.u.).

“AACTATTCCCTACTTCCGTTACAGCTGTCTCCTCCTCCTCCGGAGTCACCTAGTGCAG”: the binding signal was 8500 fluorescence intensity (a.u.).

Take “TTTCTTTTTAATTTCCACGTTCTTATCGCCATCGACTCTACGGAGTCACCTAGTGCAG”: the binding signal was 8130 fluorescence intensity (a.u.).

Consider “TGTCACACGATGCGAGCGCACAAGCCTCACACTGTTTTGTCGGAGTCACCTAGTGCAG”, for which the binding signal was 8760 fluorescence intensity (a.u.).

Take “GGTACGGTTTTTTGCTATTTTTTTCATGTGTTCGCATCACCGGAGTCACCTAGTGCAG”: the binding signal was 12500 fluorescence intensity (a.u.).

For “CACTCGATTTTCTGACTCAAATTTACAGTGCATTTTCTTACGGAGTCACCTAGTGCAG”, the binding signal was 9450 fluorescence intensity (a.u.).

As to “ATGTGATTAAATGGAGGGTTTTCGGGGAGGGTTTTCGGGGCGGAGTCACCTAGTGCAG”, the binding signal was 24100 fluorescence intensity (a.u.).

“CGGACGCCTTTCACCCTTTCCGGCTTTCCCCACTGGTTCTCGGAGTCACCTAGTGCAG”: the binding signal is 9540 fluorescence intensity (a.u.).

Turning to “TCCGGTCTCCAACTCTCCGCTGCCAGCGCCACCACCAACACGGAGTCACCTAGTGCAG”, the binding signal is 12300 fluorescence intensity (a.u.).

Consider “ACGCATCGCGTTCGGGAATCTTTCCTCGTTTTCTCCCCTTCGGAGTCACCTAGTGCAG”, for which the binding signal is 8490 fluorescence intensity (a.u.).

“GTCCCATCACCTTATTTCTCATTTTGATTTACTTTTATCTCGGAGTCACCTAGTGCAG”: the binding signal was 9330 fluorescence intensity (a.u.).

On to “CCGTTGCTTTTTGTGTGTGTGTGTGTGTGTGTACAAAATCCGGAGTCACCTAGTGCAG”, for which the binding signal was 10800 fluorescence intensity (a.u.).

In the case of “ATTGCTTACGTTTTTTCTCTCCTTTCCCATTTTTCGTCTTCGGAGTCACCTAGTGCAG”, the binding signal is 11700 fluorescence intensity (a.u.).

In the case of “GACGCCCACACCGGCTCCGATATCTTCCGCGACTGCGTCCCGGAGTCACCTAGTGCAG”, the binding signal was 8630 fluorescence intensity (a.u.).

Turning to “CATTCATTTCCCTTGACCGTTGTTGCCTTGCGCCACTGCGCGGAGTCACCTAGTGCAG”, the binding signal was 9620 fluorescence intensity (a.u.).

In the case of “TGTATAGCTAATATATATGCTACTCTCTTTTTTATTTTTTCGGAGTCACCTAGTGCAG”, the binding signal was 10100 fluorescence intensity (a.u.).

On to “CCTCTCCGTCCCAAGCCAGTTTGCCGCTCTCCGGCTCCTCCGGAGTCACCTAGTGCAG”, for which the binding signal is 9990 fluorescence intensity (a.u.).

“AGTCAAATTTGTTTTTTTTCGTTGCAACTTGTATAATTTACGGAGTCACCTAGTGCAG”: the binding signal is 9430 fluorescence intensity (a.u.).

With “TAATGCTTAGCTGTTTCTTTTTCGGTTTGTCGTGATTTCACGGAGTCACCTAGTGCAG”, the binding signal is 11600 fluorescence intensity (a.u.).

For “TACTCGTCGTCATCCTCACCGTCTCTAATACATACTTCCCCGGAGTCACCTAGTGCAG”, the binding signal was 8930 fluorescence intensity (a.u.).

Regarding “CCGATTCCCAACCAACCACGCGTCCGGTACCCGAGCCACTCGGAGTCACCTAGTGCAG”, the binding signal was 11000 fluorescence intensity (a.u.).

On to “ATAACTTTAGCCAGCAGGTTGGTAAGGGTGGGTTTGGAGCCGGAGTCACCTAGTGCAG”, for which the binding signal is 11700 fluorescence intensity (a.u.).

Consider “TGGAGGAGAATCTTGTTGTGGCCTCTTCATTTTTTTTTCCCGGAGTCACCTAGTGCAG”, for which the binding signal is 8520 fluorescence intensity (a.u.).

The values are drawn from PMC7819943, “Rice protein-binding microarrays: a tool to detect cis-acting elements near promoter regions in rice”.
